From PMC7819943, “Rice protein-binding microarrays: a tool to detect cis-acting elements near promoter regions in rice”
The other results are listed elsewhere or left out.

Biological target: T1, OsSMF1 (Oryza sativa, UniProt Q6ZLB0 1-436)
T1 sequence: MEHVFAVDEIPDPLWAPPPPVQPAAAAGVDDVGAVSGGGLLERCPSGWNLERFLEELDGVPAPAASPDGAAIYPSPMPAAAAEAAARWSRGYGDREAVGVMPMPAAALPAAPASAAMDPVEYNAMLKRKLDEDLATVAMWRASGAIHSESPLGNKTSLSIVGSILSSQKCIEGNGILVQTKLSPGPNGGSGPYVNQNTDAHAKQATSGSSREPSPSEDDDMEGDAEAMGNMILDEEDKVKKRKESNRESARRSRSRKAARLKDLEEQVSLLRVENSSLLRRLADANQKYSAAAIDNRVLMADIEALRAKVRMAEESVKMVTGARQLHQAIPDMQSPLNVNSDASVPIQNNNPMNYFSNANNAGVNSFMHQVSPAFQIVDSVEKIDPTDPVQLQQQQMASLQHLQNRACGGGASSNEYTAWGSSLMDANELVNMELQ
Experiment: protein-binding microarray (RPBM); PBS, 2% BSA, 51.3 ng/ul salmon testes DNA, 50 uM zinc acetate, 200 nM TF, 25 C, 1 h; high values mean tight binding
Details: protein: recombinant; tags: N-terminal polyhistidine and DsRed monomer fusion (pET32a); chain copies: 2; label: CyDye5-dUTP incorporated in the synthesized complementary strand; 3' TTTTT single-stranded linker to array surface; dsDNA, one strand shown
In short: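 The binding signal is fluorescence intensity per array feature (arbitrary units). Readings came from an Axon 4000B scanner after a washed, 2% BSA-blocked, double-stranded custom Agilent array had been incubated for 1 h at 25 °C with 200 nM protein and 50 µM zinc acetate. The protein was a Ni–NTA-purified transcription factor fused N-terminally to polyhistidine and DsRed, expressed in E. coli BL21-CodonPlus.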

Sequence	binding signal
AAGGCCCGCCCGGAGCGCGAATGCATCCGTGCCGCGTCAACGGAGTCACCTAGTGCAG	5480 fluorescence intensity (a.u.)
ACACAGACATCATTGCAATGACAAGCCATTTTAGAGACAACGGAGTCACCTAGTGCAG	4120 fluorescence intensity (a.u.)
GGGCTAGTTTAGTACAGTAATTTAGTTTGGTAGAGCAGCCCGGAGTCACCTAGTGCAG	22100 fluorescence intensity (a.u.)
CCGGGCCCACATGTCATCGACTCATCAAGCAGCCAGCCAACGGAGTCACCTAGTGCAG	3160 fluorescence intensity (a.u.)
CCAGTGGACCCCACGCGTCAGCGTGCTCCAGTCCACTCGACGGAGTCACCTAGTGCAG	4630 fluorescence intensity (a.u.)
CGGTTCTCTTCCCCGAATCGAACGTGGTGGCGTCGGGCTTCGGAGTCACCTAGTGCAG	3570 fluorescence intensity (a.u.)
CGTACACGTAATATCCAATTCTGTTCTTGGGCCTCACGAGCGGAGTCACCTAGTGCAG	6460 fluorescence intensity (a.u.)
TGGCAGTTTTATTTTCGTCACATATATACGTGGATCATGGCGGAGTCACCTAGTGCAG	6810 fluorescence intensity (a.u.)
TGATGTTGTTTGTTGCTCAGCGCCAAGTAATATGGCAATGCGGAGTCACCTAGTGCAG	5280 fluorescence intensity (a.u.)
CGGCGGCGGCGGCAGGCGCGGCCGGGGACGGCGCTGACGGCGGAGTCACCTAGTGCAG	3750 fluorescence intensity (a.u.)
CTTTGGTCCTCACAGCCTCGACAATTATGTTACCGCGATCCGGAGTCACCTAGTGCAG	22900 fluorescence intensity (a.u.)
TCTGTGCTGATTAATCTCTCCCTCTCTTTGTTCCTCTTCTCGGAGTCACCTAGTGCAG	3530 fluorescence intensity (a.u.)
TTCGGATTATCGGATATATCCCTGCATGCCCACGCGGCGGCGGAGTCACCTAGTGCAG	3840 fluorescence intensity (a.u.)
GCTTTGTTGGTGATCAATAACGTGGACACTGGTCGGTGGTCGGAGTCACCTAGTGCAG	4090 fluorescence intensity (a.u.)
GTGGAGGCGAGGCGGCGAGAGGCGGGTAGCAGTGGAGGAGCGGAGTCACCTAGTGCAG	3430 fluorescence intensity (a.u.)
GCGATGCAAGCTGTGACACACTAACACTCTACTTGTACTACGGAGTCACCTAGTGCAG	4070 fluorescence intensity (a.u.)
GCGCGTATAGCCGTCGCGCGGAGGGACGAGCCAAGGCCACCGGAGTCACCTAGTGCAG	3690 fluorescence intensity (a.u.)
AATGCGCCACCGTGGCCCACCGCCGTGACCTCGCCGCCGGCGGAGTCACCTAGTGCAG	4800 fluorescence intensity (a.u.)
GCCCTCTATAATATGTCATTAGGACTGCTAATTGCTATACCGGAGTCACCTAGTGCAG	3920 fluorescence intensity (a.u.)
GGCCGGGCACGGGCGTCGTGCCACCACCGTCCGTCTGCGCCGGAGTCACCTAGTGCAG	4050 fluorescence intensity (a.u.)
GCATGCTTCAGCAGCCTATGTTAGTCGTTGTGGATAACGTCGGAGTCACCTAGTGCAG	4050 fluorescence intensity (a.u.)
CGCTATTCGCTATAGTGGTTTTGCTGTATCAAATAAGAGGCGGAGTCACCTAGTGCAG	18400 fluorescence intensity (a.u.)
CTAGCTTCCAATCAACCAGACAACAACCACATATATCTTTCGGAGTCACCTAGTGCAG	3230 fluorescence intensity (a.u.)

Taken from above.
GCATGCTTCAGCAGCCTATGTTAGTCGTTGTGGATAACGTCGGAGTCACCTAGTGCAG – binding signal: 4050 fluorescence intensity (a.u.)
CTTTGGTCCTCACAGCCTCGACAATTATGTTACCGCGATCCGGAGTCACCTAGTGCAG – binding signal: 22900 fluorescence intensity (a.u.)
